Measured values published in the supplement of paper PMC12823440, “Inhibitors supercharge kinase turnover through native proteolytic circuits” (Nature, 2025).
Where a name gives a salt, the structure may show the parent alone. The list shows a part of the results. Hit calls seldom repeat between salt and free forms of one compound.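 Kinases were expressed as nanoluciferase fusions in K562 cells and luminescence was read every 4 h between 2 and 18 h as percent of control, DMSO set to 100% and a positive control to 0%. A time point counts as decreased when the signal drops significantly (2 sigma). The hit call is the authors' own, does not follow from the count of time points alone, and its rule is not shown.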

By UniProt entry, the sequences of proteins in these tests, tags left out. Where a name states a change or a piece, a line headed by the entry shows the natural chain unless it says otherwise.
UniProt P00519, whole entry: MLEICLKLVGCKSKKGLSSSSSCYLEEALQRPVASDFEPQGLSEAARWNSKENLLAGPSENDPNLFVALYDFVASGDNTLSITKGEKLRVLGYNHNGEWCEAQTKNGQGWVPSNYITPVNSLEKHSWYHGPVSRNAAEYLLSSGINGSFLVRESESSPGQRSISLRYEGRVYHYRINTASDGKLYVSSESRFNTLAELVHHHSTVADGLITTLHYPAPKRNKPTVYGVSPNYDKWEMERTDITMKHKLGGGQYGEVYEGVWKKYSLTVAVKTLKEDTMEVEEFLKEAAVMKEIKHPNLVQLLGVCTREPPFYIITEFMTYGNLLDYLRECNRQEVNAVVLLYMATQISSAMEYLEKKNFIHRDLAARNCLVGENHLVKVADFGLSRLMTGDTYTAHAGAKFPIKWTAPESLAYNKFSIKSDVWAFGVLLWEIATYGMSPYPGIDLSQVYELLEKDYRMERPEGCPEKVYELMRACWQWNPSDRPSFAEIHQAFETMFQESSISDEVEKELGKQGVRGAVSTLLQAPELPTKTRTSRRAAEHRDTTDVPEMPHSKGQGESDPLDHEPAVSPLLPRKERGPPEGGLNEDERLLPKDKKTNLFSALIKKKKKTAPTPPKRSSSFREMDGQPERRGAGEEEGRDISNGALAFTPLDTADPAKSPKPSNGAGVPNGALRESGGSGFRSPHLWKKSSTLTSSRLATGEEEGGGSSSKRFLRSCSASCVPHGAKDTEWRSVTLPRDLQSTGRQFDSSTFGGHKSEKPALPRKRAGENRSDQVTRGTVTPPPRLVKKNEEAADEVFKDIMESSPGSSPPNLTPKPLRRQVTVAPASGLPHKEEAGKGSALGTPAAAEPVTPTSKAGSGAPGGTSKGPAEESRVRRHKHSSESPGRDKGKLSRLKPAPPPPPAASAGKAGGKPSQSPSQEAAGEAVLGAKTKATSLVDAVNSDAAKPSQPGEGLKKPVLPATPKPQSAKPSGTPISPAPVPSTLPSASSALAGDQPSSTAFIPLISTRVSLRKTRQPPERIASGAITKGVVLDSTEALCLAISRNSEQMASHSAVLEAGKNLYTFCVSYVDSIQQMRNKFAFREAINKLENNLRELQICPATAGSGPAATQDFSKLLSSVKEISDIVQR
UniProt Q9UM73: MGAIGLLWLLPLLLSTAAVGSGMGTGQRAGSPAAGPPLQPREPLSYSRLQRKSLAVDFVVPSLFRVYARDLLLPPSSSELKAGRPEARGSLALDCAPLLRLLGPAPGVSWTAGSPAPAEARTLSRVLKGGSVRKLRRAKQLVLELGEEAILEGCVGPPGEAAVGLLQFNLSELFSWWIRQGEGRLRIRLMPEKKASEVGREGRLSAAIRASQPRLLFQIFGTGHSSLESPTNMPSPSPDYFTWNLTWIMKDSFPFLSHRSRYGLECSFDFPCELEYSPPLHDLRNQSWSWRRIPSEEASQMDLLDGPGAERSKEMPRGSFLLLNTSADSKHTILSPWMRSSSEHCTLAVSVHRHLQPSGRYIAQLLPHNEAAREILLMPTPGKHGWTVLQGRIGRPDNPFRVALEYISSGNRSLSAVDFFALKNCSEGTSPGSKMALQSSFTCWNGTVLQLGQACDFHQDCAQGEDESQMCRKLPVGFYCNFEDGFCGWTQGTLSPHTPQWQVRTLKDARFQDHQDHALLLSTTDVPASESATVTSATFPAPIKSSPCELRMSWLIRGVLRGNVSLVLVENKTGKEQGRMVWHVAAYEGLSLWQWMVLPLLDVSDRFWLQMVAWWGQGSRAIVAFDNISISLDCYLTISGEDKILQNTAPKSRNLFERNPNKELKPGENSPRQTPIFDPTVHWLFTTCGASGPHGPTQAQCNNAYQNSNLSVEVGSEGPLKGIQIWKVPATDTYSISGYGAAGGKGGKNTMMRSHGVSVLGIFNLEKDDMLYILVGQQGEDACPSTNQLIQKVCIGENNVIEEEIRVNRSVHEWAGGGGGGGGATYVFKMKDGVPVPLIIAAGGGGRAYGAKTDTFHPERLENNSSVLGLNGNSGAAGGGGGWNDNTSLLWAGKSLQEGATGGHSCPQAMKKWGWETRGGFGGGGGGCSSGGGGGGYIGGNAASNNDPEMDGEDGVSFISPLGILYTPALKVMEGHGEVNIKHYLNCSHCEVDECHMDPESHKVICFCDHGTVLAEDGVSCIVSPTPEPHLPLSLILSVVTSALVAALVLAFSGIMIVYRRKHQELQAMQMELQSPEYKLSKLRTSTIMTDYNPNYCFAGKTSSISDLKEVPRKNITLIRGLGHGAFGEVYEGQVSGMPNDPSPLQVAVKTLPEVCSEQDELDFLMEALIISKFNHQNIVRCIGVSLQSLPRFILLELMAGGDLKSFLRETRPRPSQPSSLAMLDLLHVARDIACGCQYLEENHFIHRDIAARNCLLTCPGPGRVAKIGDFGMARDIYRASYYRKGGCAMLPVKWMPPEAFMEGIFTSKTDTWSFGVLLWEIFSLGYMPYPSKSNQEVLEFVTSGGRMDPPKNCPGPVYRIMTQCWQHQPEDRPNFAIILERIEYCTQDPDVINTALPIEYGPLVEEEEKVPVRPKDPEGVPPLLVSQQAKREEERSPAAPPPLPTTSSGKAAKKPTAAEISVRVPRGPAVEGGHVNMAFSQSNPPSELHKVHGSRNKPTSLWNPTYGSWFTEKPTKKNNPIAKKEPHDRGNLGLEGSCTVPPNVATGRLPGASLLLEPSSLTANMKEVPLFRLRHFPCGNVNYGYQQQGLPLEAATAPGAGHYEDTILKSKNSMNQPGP
UniProt P10398: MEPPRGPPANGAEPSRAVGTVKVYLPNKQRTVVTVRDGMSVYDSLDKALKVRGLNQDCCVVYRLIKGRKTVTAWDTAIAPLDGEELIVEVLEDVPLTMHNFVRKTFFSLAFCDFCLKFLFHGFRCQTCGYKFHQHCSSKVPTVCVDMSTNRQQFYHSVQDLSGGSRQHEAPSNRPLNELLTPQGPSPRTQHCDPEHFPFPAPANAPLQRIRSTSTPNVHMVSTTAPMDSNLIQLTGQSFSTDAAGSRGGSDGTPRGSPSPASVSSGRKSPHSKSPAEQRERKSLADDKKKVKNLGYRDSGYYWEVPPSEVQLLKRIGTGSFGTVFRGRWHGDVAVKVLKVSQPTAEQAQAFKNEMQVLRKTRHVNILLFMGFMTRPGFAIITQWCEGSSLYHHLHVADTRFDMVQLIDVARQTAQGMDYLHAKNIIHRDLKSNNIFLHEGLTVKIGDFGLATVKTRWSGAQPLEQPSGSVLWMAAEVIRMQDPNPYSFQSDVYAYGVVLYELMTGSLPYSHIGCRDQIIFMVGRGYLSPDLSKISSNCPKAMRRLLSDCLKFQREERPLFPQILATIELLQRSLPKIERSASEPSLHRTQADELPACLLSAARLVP
UniProt O14965: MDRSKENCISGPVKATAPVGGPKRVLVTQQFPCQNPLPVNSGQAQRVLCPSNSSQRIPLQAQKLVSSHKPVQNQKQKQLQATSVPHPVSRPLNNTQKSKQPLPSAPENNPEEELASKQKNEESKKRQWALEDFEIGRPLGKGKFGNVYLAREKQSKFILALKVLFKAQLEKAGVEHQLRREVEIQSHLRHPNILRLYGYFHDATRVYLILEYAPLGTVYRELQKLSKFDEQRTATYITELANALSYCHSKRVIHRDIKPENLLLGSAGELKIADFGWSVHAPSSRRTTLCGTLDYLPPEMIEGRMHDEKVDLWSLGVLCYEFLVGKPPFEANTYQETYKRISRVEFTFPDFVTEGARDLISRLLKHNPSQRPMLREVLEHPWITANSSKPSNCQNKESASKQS
UniProt Q96GD4, whole entry: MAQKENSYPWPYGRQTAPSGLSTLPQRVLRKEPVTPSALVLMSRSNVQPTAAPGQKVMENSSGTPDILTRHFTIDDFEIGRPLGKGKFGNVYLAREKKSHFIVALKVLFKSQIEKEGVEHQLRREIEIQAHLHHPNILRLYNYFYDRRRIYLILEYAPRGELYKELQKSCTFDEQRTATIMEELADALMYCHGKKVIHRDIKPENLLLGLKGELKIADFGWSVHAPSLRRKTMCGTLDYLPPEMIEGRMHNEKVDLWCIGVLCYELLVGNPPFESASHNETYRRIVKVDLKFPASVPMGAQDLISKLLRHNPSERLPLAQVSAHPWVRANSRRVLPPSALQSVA
UniProt Q9UQB9: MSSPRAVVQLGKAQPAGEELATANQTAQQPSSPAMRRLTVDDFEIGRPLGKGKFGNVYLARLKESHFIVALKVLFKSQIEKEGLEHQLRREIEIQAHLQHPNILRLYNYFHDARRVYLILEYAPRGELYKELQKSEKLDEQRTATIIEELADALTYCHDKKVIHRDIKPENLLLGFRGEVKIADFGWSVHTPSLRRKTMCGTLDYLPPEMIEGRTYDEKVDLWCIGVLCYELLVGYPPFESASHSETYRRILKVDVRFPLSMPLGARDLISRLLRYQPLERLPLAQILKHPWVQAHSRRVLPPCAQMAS
UniProt P51451: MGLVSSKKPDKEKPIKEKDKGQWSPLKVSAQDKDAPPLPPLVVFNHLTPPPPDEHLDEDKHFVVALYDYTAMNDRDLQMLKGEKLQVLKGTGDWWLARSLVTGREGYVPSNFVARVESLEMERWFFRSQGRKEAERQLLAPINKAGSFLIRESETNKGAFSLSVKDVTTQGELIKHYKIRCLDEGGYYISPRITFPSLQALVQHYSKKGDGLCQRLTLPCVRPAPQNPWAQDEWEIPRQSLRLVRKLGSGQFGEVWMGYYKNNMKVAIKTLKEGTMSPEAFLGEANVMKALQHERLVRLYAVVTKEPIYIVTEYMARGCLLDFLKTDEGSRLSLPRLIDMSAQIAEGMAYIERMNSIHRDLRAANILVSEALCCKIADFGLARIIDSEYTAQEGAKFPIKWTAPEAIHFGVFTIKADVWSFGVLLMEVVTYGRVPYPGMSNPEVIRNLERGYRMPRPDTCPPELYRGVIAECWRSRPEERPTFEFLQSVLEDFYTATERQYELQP
UniProt P51813: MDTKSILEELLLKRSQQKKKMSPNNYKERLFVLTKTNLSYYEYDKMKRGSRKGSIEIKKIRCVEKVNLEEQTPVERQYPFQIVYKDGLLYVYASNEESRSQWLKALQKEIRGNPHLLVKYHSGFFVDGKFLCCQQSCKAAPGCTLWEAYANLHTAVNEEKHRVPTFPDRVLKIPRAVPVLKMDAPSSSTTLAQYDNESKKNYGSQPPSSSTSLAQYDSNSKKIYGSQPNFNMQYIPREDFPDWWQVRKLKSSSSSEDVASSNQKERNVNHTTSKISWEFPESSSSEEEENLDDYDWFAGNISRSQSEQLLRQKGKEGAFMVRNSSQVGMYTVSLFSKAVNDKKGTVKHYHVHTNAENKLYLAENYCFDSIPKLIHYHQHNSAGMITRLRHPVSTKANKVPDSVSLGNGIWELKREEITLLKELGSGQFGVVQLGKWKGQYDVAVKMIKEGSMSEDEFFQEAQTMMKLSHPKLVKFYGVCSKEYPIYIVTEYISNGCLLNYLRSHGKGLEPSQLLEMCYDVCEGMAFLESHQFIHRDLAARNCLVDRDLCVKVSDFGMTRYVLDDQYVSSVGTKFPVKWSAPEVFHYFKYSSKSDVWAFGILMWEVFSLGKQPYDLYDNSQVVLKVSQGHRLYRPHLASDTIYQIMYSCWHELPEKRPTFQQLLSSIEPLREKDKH
UniProt P15056, whole entry, looked up: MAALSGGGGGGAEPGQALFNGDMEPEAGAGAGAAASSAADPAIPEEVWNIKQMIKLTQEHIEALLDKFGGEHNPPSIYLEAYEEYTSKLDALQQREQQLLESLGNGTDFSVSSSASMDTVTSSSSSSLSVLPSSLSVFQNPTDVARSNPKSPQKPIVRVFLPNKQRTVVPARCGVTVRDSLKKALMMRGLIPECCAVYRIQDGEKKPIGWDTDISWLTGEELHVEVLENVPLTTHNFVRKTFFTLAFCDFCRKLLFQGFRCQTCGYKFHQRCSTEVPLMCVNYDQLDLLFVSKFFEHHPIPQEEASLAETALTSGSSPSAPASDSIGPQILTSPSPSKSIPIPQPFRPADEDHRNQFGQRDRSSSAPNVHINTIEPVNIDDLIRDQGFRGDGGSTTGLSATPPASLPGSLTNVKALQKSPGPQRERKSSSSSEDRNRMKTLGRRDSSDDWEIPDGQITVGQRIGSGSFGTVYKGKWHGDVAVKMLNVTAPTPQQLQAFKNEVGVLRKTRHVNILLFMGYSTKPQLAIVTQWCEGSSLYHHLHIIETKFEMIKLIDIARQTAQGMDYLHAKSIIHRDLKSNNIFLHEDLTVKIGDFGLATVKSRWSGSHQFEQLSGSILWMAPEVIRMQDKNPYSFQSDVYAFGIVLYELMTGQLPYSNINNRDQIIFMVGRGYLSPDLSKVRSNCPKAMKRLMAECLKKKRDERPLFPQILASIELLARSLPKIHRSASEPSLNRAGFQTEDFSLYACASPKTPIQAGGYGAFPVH

Experiments:
Assay in all cases: kinase-Nluc reporter destabilization hit call (1 = scored as downregulated) (binary); higher = compound decreases kinase abundance
Conditions in all cases: K562; 2-18 h
[1] = molecular target: ABL1 (UniProt P00519)
[2] = molecular target: AKT1 (UniProt P31749)
[3] = molecular target: ALK (UniProt Q9UM73)
[4] = molecular target: ARAF (UniProt P10398)
[5] = molecular target: AURKA (UniProt O14965)
[6] = molecular target: AURKB (UniProt Q96GD4)
[7] = molecular target: AURKC (UniProt Q9UQB9)
[8] = molecular target: BLK (UniProt P51451)
[9] = molecular target: BMX (UniProt P51813)
[10] = molecular target: BRAF (UniProt P15056)

Measured: kinase-Nluc reporter destabilization hit call

O=C(Nc1nc2ccc(NC(=O)C34CC5CC(CC(C5)C3)C4)cc2s1)c1ccccc1 (10 µM)
inactive: [1] 0 | [2] 0 | [3] 0 | [4] 0 | [5] 0 | [6] 0 | [7] 0 | [8] 0 | [9] 0 | [10] 0

c1cc(NC2CCNCC2)nc(-c2cnc3ccccn23)c1 [IRAK inhibitor 1] (10 µM)
inactive: [1] 0 | [2] 0 | [3] 0 | [4] 0 | [5] 0 | [6] 0 | [7] 0 | [8] 0 | [9] 0 | [10] 0

Cc1cnc(-c2ccc(-c3ccc(NC(=O)Nc4cccc(C(F)(F)F)c4)cc3F)c3c2C(=O)NC3)[nH]1 (10 µM)
inactive: [1] 0 | [2] 0 | [3] 0 | [4] 0 | [5] 0 | [6] 0 | [7] 0 | [8] 0 | [9] 0 | [10] 0

CC(C)CCNC(=O)c1ccc2c(c1)nc(Nc1n[nH]c3ccc(-c4ccccc4OC(F)(F)F)cc13)n2C1CCC(O)CC1 (stereo not drawn) [IRAK inhibitor 4 (trans)] (10 µM)
inactive: [1] 0 | [2] 0 | [3] 0 | [4] 0 | [5] 0 | [6] 0 | [7] 0 | [8] 0 | [9] 0 | [10] 0

CS(=O)(=O)c1ccc(-c2cnc(N)c(-c3ccc(C(F)(F)F)nc3)c2)cc1 (10 µM)
inactive: [1] 0 | [2] 0 | [3] 0 | [4] 0 | [5] 0 | [6] 0 | [7] 0 | [8] 0 | [9] 0 | [10] 0

COCCNc1cc(NC(=O)N2CCCc3cc(CN4CCN(C)CC4=O)c(C=O)nc32)ncc1C#N [Roblitinib] (10 µM)
inactive: [1] 0 | [2] 0 | [3] 0 | [4] 0 | [5] 0 | [6] 0 | [7] 0 | [8] 0 | [9] 0 | [10] 0

Cc1ccn2c(C(=O)C(=O)c3ccccc3)c(-c3ccccc3)nc2c1 (10 µM)
inactive: [1] 0 | [2] 0 | [3] 0 | [4] 0 | [5] 0 | [6] 0 | [7] 0 | [8] 0 | [9] 0 | [10] 0

N[C@@H](CCC(=O)O)C(=O)N[C@@H](Cc1c[nH]c2ccccc12)C(=O)O [Oglufanide] (10 µM)
inactive: [1] 0 | [2] 0 | [3] 0 | [4] 0 | [5] 0 | [6] 0 | [7] 0 | [8] 0 | [9] 0 | [10] 0

c1ccc(-c2nc(=NCCN3CCOCC3)sn2-c2ccccc2)cc1 [VP3.15 (dihydrobromide)] (10 µM)
inactive: [1] 0 | [2] 0 | [3] 0 | [4] 0 | [5] 0 | [6] 0 | [7] 0 | [8] 0 | [9] 0 | [10] 0

COc1cc(N2CCOCC2)ccc1Nc1ncc(Cl)c(Nc2ccccc2NS(C)(=O)=O)n1 (2.5 µM)
inactive: [1] 0 | [2] 0 | [3] 0 | [4] 0 | [5] 0 | [6] 0 | [7] 0 | [8] 0 | [9] 0 | [10] 0

CCCCCCCCCCCCCCCCOP(=O)([O-])OCC[N+](C)(C)C [Miltefosine] (10 µM)
inactive: [1] 0 | [2] 0 | [3] 0 | [4] 0 | [5] 0 | [6] 0 | [7] 0 | [8] 0 | [9] 0 | [10] 0

COc1ccc(-c2c(C)nn3c(NCCN4CCOCC4)cc(C)nc23)cc1OC (10 µM)
inactive: [1] 0 | [2] 0 | [3] 0 | [4] 0 | [5] 0 | [6] 0 | [7] 0 | [8] 0 | [9] 0 | [10] 0

Sorted by SMILES length (falling): some entries from above.
Cc1cnc(-c2ccc(-c3ccc(NC(=O)Nc4cccc(C(F)(F)F)c4)cc3F)c3c2C(=O)NC3)[nH]1 (10 µM)
inactive: [1] 0 | [2] 0 | [3] 0 | [4] 0 | [5] 0 | [6] 0 | [7] 0 | [8] 0 | [9] 0 | [10] 0

CS(=O)(=O)c1ccc(-c2cnc(N)c(-c3ccc(C(F)(F)F)nc3)c2)cc1 (10 µM)
inactive: [1] 0 | [2] 0 | [3] 0 | [4] 0 | [5] 0 | [6] 0 | [7] 0 | [8] 0 | [9] 0 | [10] 0

Cc1ccn2c(C(=O)C(=O)c3ccccc3)c(-c3ccccc3)nc2c1 (10 µM)
inactive: [1] 0 | [2] 0 | [3] 0 | [4] 0 | [5] 0 | [6] 0 | [7] 0 | [8] 0 | [9] 0 | [10] 0

Further compounds

O=C(O)c1cccc(CN2C(=O)/C(=C(\c3ccccc3)c3ccc(Cl)cc3)c3ccccc32)c1 (2.5 µM)
inactive: [1] 0 | [2] 0 | [3] 0 | [4] 0 | [5] 0 | [6] 0 | [7] 0 | [8] 0 | [9] 0 | [10] 0

CC(C)=CCc1c(-c2ccc(O)cc2O)oc2c3c(cc(O)c2c1=O)OC(C)(C)C=C3 [Morusin] (2.5 µM)
inactive: [1] 0 | [2] 0 | [3] 0 | [4] 0 | [5] 0 | [6] 0 | [7] 0 | [8] 0 | [9] 0 | [10] 0

C[C@@H]1CCNC(=O)c2cc3ccc(C(=O)Nc4nc5ccccc5n4CCCN(C)C)cc3n21 (10 µM)
inactive: [1] 0 | [2] 0 | [3] 0 | [4] 0 | [5] 0 | [6] 0 | [7] 0 | [8] 0 | [9] 0 | [10] 0

CC(=O)N1CCC(c2cc(-c3ccc(NC(=O)c4cccn(-c5ccc(F)cc5)c4=O)cc3F)c3c(N)ncnn23)CC1 (0.5 µM)
inactive: [1] 0 | [2] 0 | [3] 0 | [4] 0 | [5] 0 | [6] 0 | [7] 0 | [8] 0 | [9] 0 | [10] 0

C#Cc1cccc(Nc2ncnc3cc(OC)c(OCCCCCCC(=O)NO)cc23)c1 (2.5 µM)
inactive: [1] 0 | [2] 0 | [3] 0 | [4] 0 | [5] 0 | [6] 0 | [7] 0 | [8] 0 | [9] 0 | [10] 0

COc1ccc(S(=O)(=O)NCc2ccc(C(=O)NCCc3ccc(Cl)cn3)cc2)cc1 (10 µM)
inactive: [1] 0 | [2] 0 | [3] 0 | [4] 0 | [5] 0 | [6] 0 | [7] 0 | [8] 0 | [9] 0 | [10] 0

CC(C)=CC(=O)O[C@H]1Cc2cc3ccc(=O)oc3cc2OC1(C)C [Decursin] (10 µM)
inactive: [1] 0 | [2] 0 | [3] 0 | [4] 0 | [5] 0 | [6] 0 | [7] 0 | [8] 0 | [9] 0 | [10] 0

NC(=O)c1cnc2[nH]ccc2c1N[C@@H]1[C@@H]2CC3C[C@H]1C[C@@](O)(C3)C2 [Peficitinib] (10 µM)
inactive: [1] 0 | [2] 0 | [3] 0 | [4] 0 | [5] 0 | [6] 0 | [7] 0 | [8] 0 | [9] 0 | [10] 0

COc1ccccc1C(=O)/C=C/c1ccccc1C(=O)O (10 µM)
inactive: [1] 0 | [2] 0 | [3] 0 | [4] 0 | [5] 0 | [6] 0 | [7] 0 | [8] 0 | [9] 0 | [10] 0

Cn1cc(-c2cnc3cnn(S(=O)(=O)c4cnc5ccc(-c6cnn(C)c6)cn45)c3c2)cn1 [Glumetinib] (10 µM)
inactive: [1] 0 | [2] 0 | [3] 0 | [4] 0 | [5] 0 | [6] 0 | [7] 0 | [8] 0 | [9] 0 | [10] 0

Nc1ncnc2c1c(-c1ccc(Oc3ccccc3)cc1)nn2C1CCN(CCOCCOCCOc2ccc3c(c2)CN(C2CCC(=O)NC2=O)C3=O)CC1 (stereo not given) (2.5 µM)
inactive: [1] 0 | [2] 0 | [3] 0 | [4] 0 | [5] 0 | [6] 0 | [7] 0 | [8] 0 | [9] 0 | [10] 0

C=CC(=O)Nc1cc(Nc2nccc(-n3cc(CN(C)C)c(-c4ccccc4)n3)n2)c(OC)cc1N1CCOCC1 [Lazertinib] (10 µM)
inactive: [1] 0 | [2] 0 | [3] 0 | [4] 0 | [5] 0 | [6] 0 | [7] 0 | [8] 0 | [9] 0 | [10] 0

CCOC(=O)N1C/C(=C/c2ccccc2F)C(=O)/C(=C\c2ccccc2F)C1 (2.5 µM)
inactive: [1] 0 | [2] 0 | [3] 0 | [4] 0 | [5] 0 | [6] 0 | [7] 0 | [8] 0 | [9] 0 | [10] 0

Cn1cnc([N+](=O)[O-])c1C[N+](C)(C)C/C=C/C(=O)Nc1cc2c(Nc3ccc(Cl)c(Br)c3)ncnc2cn1 [Tarloxotinib (bromide)] (10 µM)
inactive: [1] 0 | [2] 0 | [3] 0 | [4] 0 | [5] 0 | [6] 0 | [7] 0 | [8] 0 | [9] 0 | [10] 0

CC(C)CNc1ccnc(NCc2csc(-c3ccccc3)n2)n1 [KHS101 hydrochloride] (2.5 µM)
inactive: [1] 0 | [2] 0 | [3] 0 | [4] 0 | [5] 0 | [6] 0 | [7] 0 | [8] 0 | [9] 0 | [10] 0

O=c1[nH]c(C2CCCN2)nc2c1oc1ccc(Cl)cc12 (stereo not given) [XL413 (hydrochloride)] (10 µM)
inactive: [1] 0 | [2] 0 | [3] 0 | [4] 0 | [5] 0 | [6] 0 | [7] 0 | [8] 0 | [9] 0 | [10] 0

CC(C)C[C@@H](C(=O)Nc1ccn(C[C@@H](O)CO)n1)N1CC(Oc2ccccc2Cl)=CC1=O [Dorzagliatin] (10 µM)
inactive: [1] 0 | [2] 0 | [3] 0 | [4] 0 | [5] 0 | [6] 0 | [7] 0 | [8] 0 | [9] 0 | [10] 0
